Measurements reported in PubChem BioAssay AID504808 (Drosophila RNAi Screening Center, 2011).

Screen: 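Chromatin factors that keep E2F targets switched off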 (primary screen)
System: Drosophila S2 cells
Reagent: long dsRNA against Drosophila genes
Measured: 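Firefly luciferase driven by E2F sites, normalised to Renilla luciferase on the same minimal promoter, measured by plate reader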
Scale: E2F firefly: higher = more E2F reporter activity; Renilla normaliser: higher = more normaliser reporter signal
Call rule: 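a knock-down counted as active when the firefly/Renilla E2F signal rose above 50%, a threshold chosen arbitrarily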
The screen tested about 21,000 reagents; shown is a random part of those that have a named target and a result. In the full data, 18 (0.084%) are marked active. 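Raw counts without plate normalisation, one of two replicates; the ratio scores behind the calls were not deposited.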 Entries without a mark were called inactive. The numbers tell different reagents against one gene apart. A plus sign joins genes that one reagent is predicted to hit. No sequences are given here. Not stated in the record: the amount of reagent, the time to read-out.

no.	target	reagent no.	E2F firefly, rep 1	Renilla normaliser, rep 1
1	plh	1	1.22e5	5491
2	zormin	1	1.38e5	4655
3	zormin	2	88001	3952
4	zormin	3	1.05e5	5268
5	zormin	4	1.04e5	4656
6	zormin	5	97574	4789
7	zormin	6	68834	3343
8	CG15739	1	46981	3687
9	mbc	1	1.25e5	5720
10	LamC	1	2639	207
11	CG14322	1	1.24e5	7909
12	mRpS21	1	93027	2556
13	beta'COP	1	62684	3665
14	CG2608	1	51238	3031
15	CG42531	1	1.50e5	4555
16	CG14974	1	1.04e5	3666
17	CG4615	1	87810	2331
18	CG4615	2	7040	920
19	GXIVsPLA2	1	63520	3158
20	CG11902	1	1.05e5	5961
21	GluRIIA	1	1.48e5	4198
22	babo	1	1.47e5	5142
23	CG42374 + Mettl5	1	73984	3084
24	Gem3	1	1.08e5	4842
25	GlnRS	1	1724	1172
26	CG10543	1	86907	4310
27	TotC	1	77227	2300
28	CG6665	1	71563	3403
29	Or43b	1	1.48e5	5291
30	otk	1	98480	4415
31	oys	1	1.22e5	4599
32	oys	2	2742	209
33	CtIP	1	1.40e5	7201
34	CG13972	1	1.02e5	7101
35	Rab4	1	69496	4023
36	TM9SF3	1	95922	3926
37	CG32073	1	1.09e5	3798
38	CG32073	2	1.01e5	5553
39	Cyp6a18	1	99067	5596
40	TwdlP	1	1.13e5	7322
41	dpr7	1	85911	2939
42	CG2861	1	1.17e5	6697
43	Sqor	1	83280	3537
44	CG13894	1	73854	3547
45	CG5033	1	70929	3748
46	CG34148 + P5CDh2	1	93686	2121
47	CG31388	1	73865	3358
48	gd	1	1.32e5	6345
49	Nepl3	1	94980	3972
50	CG15027	1	2.18e5	6332
51	rdhB	1	80818	4204
52	Cpr47Eg	1	93373	3901
53	EcR	1	1.11e5	5117
54	EcR	2	71338	3260
55	Dis3	1	47777	3327
56	alphaTub84D	1	1.06e5	5718
57	fd3F (retired record) + Crg-1	1	88175	2820
58	mRpL46	1	94582	4241
59	CG13386	1	1.39e5	5016
60	hll	1	61665	3509
61	CG5157	1	1.50e5	8774
62	Gr23a	1	1.57e5	5050
63	bumpel	1	1.47e5	6434
64	Ttc1	1	94869	4696
65	pie	1	78578	3096
66	CG8003	1	78471	3130
67	Nepl15	1	73111	4005
68	CG13907	1	81297	3474
69	Sf3b2	1	69033	4182
70	CG13659	1	1.23e5	6366
71	Nadsyn	1	7480	896
72	Nepl6	1	46577	3682
73	CG15109	1	1.47e5	4955
74	CG33230	1	83804	3282
75	CG13705	1	1.08e5	4254
76	Rpt6	1	1.69e5	6046
77	CG5543	1	73309	2883
78	Or19a	1	1.40e5	6944
79	Coq8	1	1.34e5	6972
80	arm	1	1835	1144
81	Kr-h1	1	1.28e5	6910
82	Kr-h1	2	94314	4012
83	maf-S	1	87977	4019
84	fs(1)Yb	1	1.23e5	5384

Reformatted: entries from further up
| target | reagent no. | E2F firefly, rep 1 | Renilla normaliser, rep 1 |
| --- | --- | --- | --- |
| oys | 1 | 1.22e5 | 4599 |
| oys | 2 | 2742 | 209 |
| CtIP | 1 | 1.40e5 | 7201 |
| CG13972 | 1 | 1.02e5 | 7101 |
| Rab4 | 1 | 69496 | 4023 |
| TM9SF3 | 1 | 95922 | 3926 |
| CG32073 | 1 | 1.09e5 | 3798 |
| CG32073 | 2 | 1.01e5 | 5553 |
| Cyp6a18 | 1 | 99067 | 5596 |
| TwdlP | 1 | 1.13e5 | 7322 |
| dpr7 | 1 | 85911 | 2939 |
| CG2861 | 1 | 1.17e5 | 6697 |
